Test results: patent US12552834B2, “Selective MENA binding peptides” (MASSACHUSETTS INSTITUTE OF TECHNOLOGY, priority 2021, dated 2026)
Some of these results come from one statement about several compounds together. Where no end group is shown, it is not given here.

Chains of the proteins cited; added tags and fusions are not shown. A line that says so, or that is headed by a name, gives the form on record, which may keep a tag or linker. Residues count along the entry.
UniProt Q8N8S7, 1-111 R47A limits assumed: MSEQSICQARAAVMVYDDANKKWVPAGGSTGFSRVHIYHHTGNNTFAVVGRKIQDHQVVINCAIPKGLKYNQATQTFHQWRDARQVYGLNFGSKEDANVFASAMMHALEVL
UniProt Q8N8S7, with tags, fused parts or gaps: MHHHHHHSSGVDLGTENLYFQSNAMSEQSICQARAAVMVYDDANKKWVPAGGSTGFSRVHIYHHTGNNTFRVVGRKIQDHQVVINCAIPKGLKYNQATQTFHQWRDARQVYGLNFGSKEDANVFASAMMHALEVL

What was measured:
[1] = biological target: T1, ENAH EVH1 R47A (Homo sapiens, UniProt Q8N8S7, R47A); experiment: BLI, peptides binding ENAH EVH1 domain with Arg47 mutated to Ala; details: peptides containing two FP4 motifs
T1 construct: ENAH EVH1 domain with Arg47 mutated to Ala (ENAH R47A); 6×-His + TEV cleavage site (N, cleaved yes); made in house; host or cells: E. coli Rosetta2(DE3)

[2] = biological target: T2, ENAH EVH1 domain (Homo sapiens, UniProt Q8N8S7); experiment: Biolayer interferometry (BLI), SUMO-peptide fusions binding monomeric ENAH EVH1 domain WT; details: truncating the 36-mer to leave only one FP4 motif
T2 construct: places a 6×-His and TEV cleavage tag N-terminal to the EVH1 domain; 6×-His + TEV cleavage site (N, cleaved yes); made in house; host or cells: E. coli Rosetta2(DE3)
Experimental: All BLI experiments were performed with 2 replicates on an Octet Red96 instrument (ForteBio). […] The loaded tips were immersed in a solution of ENAH EVH1 domain at a relevant dilution series in BLI buffer at an orbital shake speed of 1000 rpm and run until the binding signal plateaued. ENAH-bound tips were subsequently placed into BLI buffer only for dissociation and run until the binding signal plateaued. KD values were obtained through steady state analysis. […] The association phases were then fit to a one-phase binding model in Prism and the equilibrium steady-state binding signal values from that fit were plotted against ENAH concentration and fit to a single-site specific binding model in Prism to obtain dissociation constants. Errors reported are the standard deviation of two replicates.
Monomeric ENAH, EVL, or VASP EVH1 domains for use in BLI and ITC experiments, or ENAH EVH1-peptide fusions for crystallography was cloned into a pMCSG7 vector (gift from Frank Gertler, MIT), which places a 6×-His and TEV cleavage tag N-terminal to the EVH1 domain. These constructs were transformed into Rosetta2(DE3) cells and grown in 2×YT media supplemented with 100 μg/mL ampicillin. Cells were grown while shaking at 37° C. to an O.D. 600 of 0.5-0.7, and then cooled on ice for at least 20 minutes. They were then induced with 0.5 mM IPTG and grown while shaking at 18° C. overnight. […]

| Substance | reduction in affinity to ENAH R47A relative to wild type [1] | reduction in affinity [2] |
| --- | --- | --- |
| ALGGAFPPPPPPIEESFPPAPLEEEIFPSPPPPPEE-OH [ZYX] | 7-15 fold |  |
| ADRSPFLPPPPPVTDCSQGSPLPHSPVFPPPPPEAL-OH [NHSL1] | 7-15 fold | 3-6 fold |
